Test results: publication PMC12288466, “EzrA promotes Z-ring formation through interaction of its QNR motif with FtsA” (Journal of Bacteriology, 2025)
These are yes or no findings as the source states them, for the method shown. Some entries that bind do so weakly or less than the wild type. Tags and fused reporters may be left off the sequences shown. Blank lines part the entries; values can stand above or below the binder they belong to.

Experiments:
[1] = target: T1, FtsA of E. faecalis, bacterial two-hybrid fusion (E. faecalis) (UniProt O07111); experiment: two-hybrid; bacterial two-hybrid (pUT18/pKT25) in E. coli BTH101, spots on LB agar with X-Gal and IPTG, 30°C, 24 h
T1 sequence: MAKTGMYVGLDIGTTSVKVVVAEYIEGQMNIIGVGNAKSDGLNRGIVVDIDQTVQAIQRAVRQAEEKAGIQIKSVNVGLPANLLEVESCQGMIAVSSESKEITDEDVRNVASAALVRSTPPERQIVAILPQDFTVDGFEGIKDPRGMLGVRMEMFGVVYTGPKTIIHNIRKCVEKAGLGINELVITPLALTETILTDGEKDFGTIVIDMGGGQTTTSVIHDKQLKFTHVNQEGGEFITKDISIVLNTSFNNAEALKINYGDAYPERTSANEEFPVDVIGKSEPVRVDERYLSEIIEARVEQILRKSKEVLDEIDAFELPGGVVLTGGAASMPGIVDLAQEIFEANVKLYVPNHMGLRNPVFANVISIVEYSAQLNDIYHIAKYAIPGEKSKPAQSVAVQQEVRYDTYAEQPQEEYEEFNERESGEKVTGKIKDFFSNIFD

[2] = target: T1, FtsA of E. faecalis, bacterial two-hybrid fusion (E. faecalis); experiment: two-hybrid; bacterial two-hybrid (pUT18/pKT25) in E. coli BTH101, β-galactosidase activity of cultures grown at 30°C for 16 h
[3] = target: T2, FtsA of B. subtilis, bacterial two-hybrid fusion (B. subtilis) (UniProt P28264); experiment: two-hybrid; bacterial two-hybrid (pUT18/pKT25) in E. coli BTH101, spots on LB agar with X-Gal and IPTG, 30°C, 24 h
T2 sequence: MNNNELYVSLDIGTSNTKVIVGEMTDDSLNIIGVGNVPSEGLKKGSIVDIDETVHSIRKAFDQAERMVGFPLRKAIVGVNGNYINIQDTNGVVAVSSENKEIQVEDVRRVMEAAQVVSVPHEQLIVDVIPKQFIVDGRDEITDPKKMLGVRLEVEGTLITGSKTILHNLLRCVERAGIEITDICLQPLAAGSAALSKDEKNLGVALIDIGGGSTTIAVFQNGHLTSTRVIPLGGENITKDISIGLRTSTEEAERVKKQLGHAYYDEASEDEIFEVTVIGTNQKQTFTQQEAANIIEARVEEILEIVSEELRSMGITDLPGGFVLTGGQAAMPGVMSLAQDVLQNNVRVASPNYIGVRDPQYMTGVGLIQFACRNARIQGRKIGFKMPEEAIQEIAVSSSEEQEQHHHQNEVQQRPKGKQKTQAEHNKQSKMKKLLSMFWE

[4] = target: T2, FtsA of B. subtilis, bacterial two-hybrid fusion (B. subtilis); experiment: two-hybrid; bacterial two-hybrid (pUT18/pKT25) in E. coli BTH101, β-galactosidase activity of cultures grown at 30°C for 16 h

binding [1]: binds
binding [2]: binds
B1: EzrA of Enterococcus faecalis, bacterial two-hybrid fusion (protein, UniProt Q838R5 1-578)
chain: MKNNWIIILVLVIVIIAAVLYLIGYFMRKKNQEQLDELEVRKEALFDLPVFEEIDDIKKMHLVGQSQNSFREWNQRWVELSTRSFAELESQIYEVENQNEIFRFMKAKKAVVEANETMTEMEAEVEVIRNGLKELRESEERNSLEVQKALDVYEELSKSLKDDKASFGPAYSEIQKQLRNVEIEFTQFVTLNTSGDPIEAREVLEDAERHTYELEDLMKRIPPMYEELNETFPDQLKEIEEGYNQLLADDYVFPEQNFAEEIQHAKKRVENSMADLEKTEIAAVEVANRDTATAIDALYEVMEREIEAKKYVVTNQKIIDDYISHSLKNNRQLMIELDHVSQSYTLNNNELGRSRGFQTEIEEIIRRQKDLEPRMKEHTVPYSEIQAFYKECYKILDDIENQQLEIDASLKELRKGEKVAQEKVDEYEFRLRSIKRYVEKQRLPGLSADYLEFFYVATDRIEDLSRALNKMRINMDEINRLCDLCEDDLELLDKKTKDLVNAAALTEQMMQYANRYRHTHENIRAALDKSMYLFSTEFRYQDALDEIGTALEAVEPGAFKRIEDFYFKNINNPNLTAI

binding [3]: binds
binding [4]: binds
B2: EzrA of B. subtilis, bacterial two-hybrid fusion (protein, UniProt O34894 1-562)
chain: MEFVIGLLIVLLALFAAGYFFRKKIYAEIDRLESWKIEILNRSIVEEMSKIKHLKMTGQTEEFFEKWREEWDEIVTAHMPKVEELLYDAEENADKYRFKKANQVLVHIDDLLTAAESSIEKILREISDLVTSEEKSREEIEQVRERYSKSRKNLLAYSHLYGELYDSLEKDLDEIWSGIKQFEEETEGGNYITARKVLLEQDRNLERLQSYIDDVPKLLADCKQTVPGQIAKLKDGYGEMKEKGYKLEHIQLDKELENLSNQLKRAEHVLMTELDIDEASAILQLIDENIQSVYQQLEGEVEAGQSVLSKMPELIIAYDKLKEEKEHTKAETELVKESYRLTAGELGKQQAFEKRLDEIGKLLSSVKDKLDAEHVAYSLLVEEVASIEKQIEEVKKEHAEYRENLQALRKEELQARETLSNLKKTISETARLLKTSNIPGIPSHIQEMLENAHHHIQETVNQLNELPLNMEEAGAHLKQAEDIVNRASRESEELVEQVILIEKIIQFGNRFRSQNHILSEQLKEAERRFYAFDYDDSYEIAAAAVEKAAPGAVEKIKADISA
